# Record: PubChem BioAssay AID504784 (Drosophila RNAi Screening Center, 2011)
# Assay: 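Search for regulators of lipid droplet storage in oleate-fed fly cells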 (primary screen)
# Cell system: Drosophila Kc167 embryonic cells
# Reagents: long dsRNA against Drosophila genes, about 250 ng dsRNA per well
# Timing: 4 days
# Conditions: cells fed 400 µM oleic acid bound to BSA
# Detection: 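Cells imaged and segmented; ratio of lipid droplet area to nuclear area, log-transformed, then normalised as a B-score over the screen; higher means more stored lipid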
# Scale: droplet/nuclear area B-score: higher = more stored lipid (overstorage)
# In all, the deposit lists about 17,000 reagents; below is a random part of those with a known target gene and a result. 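Each column is one replicate's B-score; the combined score over replicates was not deposited, so single values may mislead.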 Names joined by + are all predicted targets of the reagent. Not all columns of the deposit are shown.
Target gene,amplicon,"droplet/nuclear area B-score, replicate 1"
Nup160 + RfC38,DRSC01997,-1.84
CG17234,DRSC00490,1.83
l(2)37Cb,DRSC02095,-0.204
CG16957,DRSC02545,-0.613
fd19B,DRSC20688,-2.1
CG14861,DRSC14984,0.552
CG14397,DRSC02381,1.55
Tpi,DRSC16888,-1.09
CG18731,DRSC15377,0.448
CG43861 + CG12508 (retired record),DRSC02170,-0.0512
Hydr1,DRSC07063,-0.0571
CG13332,DRSC06367,0.0132
CG3740,DRSC18508,0.856
Shal,DRSC09625,-0.0853
Shal,DRSC11283,-1.59
CG17325 + CG42305,DRSC02602,1.41
CG10591,DRSC09748,-0.662
CG7142,DRSC16204,0.644
CG17564,DRSC02626,-0.333
CG42355,DRSC07967,-0.158
Alk,DRSC05918,-1.11
Alk,DRSC23342,-0.378
CG9304,DRSC04538,-1.98
CG4607,DRSC18375,-1.07
Tango1,DRSC02127,4.94
MESR6,DRSC10720,1.01
CG13658,DRSC14659,1
CG8043,DRSC16368,3.65
tai,DRSC02207,0.492
tai,DRSC02673,-0.816
loqs,DRSC02997,-1.3
CG3436,DRSC00605,1.87
CG12715,DRSC19492,-0.14
CG11125,DRSC06042,-0.0128
CG31219,DRSC15140,0.67
Alp4,DRSC14116,-0.487
CG12849,DRSC04129,0.236
Sdb,DRSC06272,0.208
Sdb,DRSC06273,-0.282
Sdb,DRSC07155,1.46
CG4982,DRSC10465,0.048
sl,DRSC20377,1.21
sl,DRSC21782,1.22
Uhg3,DRSC22963,0.401
EDTP,DRSC07409,0.106
ODA-Dnal1,DRSC07270,-0.675
CG14391,DRSC14850,-0.362
CG12301,DRSC09875,0.344
CG40439,DRSC22707,0.301
Lamtor4,DRSC08436,0.382
Vps33B,DRSC15722,0.0635
Glut3,DRSC16681,-0.0161
Gr59f,DRSC04499,-0.192
didum,DRSC07603,-0.916
CG10089,DRSC09694,-1.47
CG10089,DRSC09695,-1
blot,DRSC09485,0.0334
blot,DRSC11328,0.257
CG13010,DRSC19529,-0.843
CG4440,DRSC02747,0.134
Cad86C,DRSC15587,1.62
Cad86C,DRSC15611,-0.775
Pcp,DRSC03395,-0.0553
mRpL48,DRSC00506,1.8
Polr1D + DCTN6-p27,DRSC02094,-0.721

The list goes on, starting with the last 9 of the part before.
Target gene,amplicon,"droplet/nuclear area B-score, replicate 1"
blot,DRSC09485,0.0334
blot,DRSC11328,0.257
CG13010,DRSC19529,-0.843
CG4440,DRSC02747,0.134
Cad86C,DRSC15587,1.62
Cad86C,DRSC15611,-0.775
Pcp,DRSC03395,-0.0553
mRpL48,DRSC00506,1.8
Polr1D + DCTN6-p27,DRSC02094,-0.721
CG14483,DRSC06455,-0.0481
MKP-4,DRSC19567,0.00417
CtsL2,DRSC06978,2.25
pll,DRSC17026,-0.805
Gyf,DRSC17202,1.4
Sec15,DRSC16179,1.36
t-Grip128,DRSC07853,2.19
CG15117,DRSC06539,-0.0603
Hr3,DRSC06118,0.649
Hr3,DRSC07441,-1.47
Nha1,DRSC02109,0.263
IntS11,DRSC15407,-0.219
Rpp30,DRSC00320,-1.88
me31B,DRSC03569,1.61
ind,DRSC11355,2.26
ind,DRSC23095,0.0229
larp,DRSC14728,1.69
larp,DRSC16984,3.63
larp,DRSC21856,-0.435
betaGlu,DRSC15419,-0.236
CARPB,DRSC18437,-0.836
CARPB,DRSC18438,-0.0325
CG15471,DRSC18054,1.82
Arp6,DRSC19326,2.89
CG10560,DRSC14256,-2.51
Ythdf,DRSC16036,-1.9
Ythdf,DRSC16037,0.21
CG34168,DRSC01938,-1.85
mRpS21,DRSC12965,-1.06
mRpS21,DRSC21357,-0.649
Adss,DRSC14162,0.453
CG7484,DRSC10853,0.479
CG13994,DRSC02326,0.706
CG14546,DRSC14890,0.681
Alp9,DRSC10486,-1.64
Tom7,DRSC05135,0.266
Tom7,DRSC07113,-0.171
CG12056,DRSC17796,-1.81
Try29F,DRSC03466,-0.654
CG13054,DRSC09935,-0.00662
